Article PMC9613664

Biological target: T1, GST-fused RUNX2 C-terminal fragment (230-499 aa) (UniProt Q13950)
T1 sequence: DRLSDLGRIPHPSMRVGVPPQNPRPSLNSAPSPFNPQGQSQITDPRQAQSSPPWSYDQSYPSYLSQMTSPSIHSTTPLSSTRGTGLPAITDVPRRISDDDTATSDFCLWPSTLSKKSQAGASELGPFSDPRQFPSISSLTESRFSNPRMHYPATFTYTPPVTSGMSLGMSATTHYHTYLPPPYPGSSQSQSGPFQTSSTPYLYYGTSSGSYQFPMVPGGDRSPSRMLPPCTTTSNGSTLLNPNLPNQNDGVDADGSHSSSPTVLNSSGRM
Assay: pull-down; about 5 ug GST-fused protein (from BL21 E. coli) with 25 uL glutathione-Sepharose beads mixed with 40 uL in vitro transcribed/translated product, 4 C, 2 h; five washes with binding buffer; western blot; only the target purified

## in vitro transcribed/translated CUL4B
  binding: binds

No constants are given. Whether binding was seen depends on the method and setting. Binding seen in cells or lysates may run through a third protein. Binding calls can cover weak binding; strength is not graded here. Sequences can lack the tags named with a protein.
